In test [1] the target is memapsin 2 (Homo sapiens, UniProt P56817). The test is described as follows: Inhibition of memapsin 2 beta-secretase activity toward fluorogenic substrate FS-2. Particulars: read-out: M2Ki, memapsin 2, pH 4, 37° C., 20 minutes pre-incubation. The protocol: Potency of compounds were determined by measurement of their inhibition of memapsin 2 activity toward a fluorescent substrate. Kinetic inhibition experiments were performed using the procedure as described in Ermolieff, et al. (Biochemistry 39:12450-12456 (2000), the teachings of which are incorporated hereby in their entirety). Briefly, assays were performed at pH 4, 37° C., by pre-incubation of memapsin 2 enzyme with compound for 20 minutes. Activity measurements were initiated by addition of a fluorogenic substrate FS-2 (Bachem Americas, Torrance, Calif.) MCA-SEVNLDAEFK-DNP (SEQ ID NO.: 2). The substrate was derived from 10 amino acids of the human amyloid precursor protein (APP), with the Swedish variant amino acids at the beta-secretase cleavage site. The terminal amino acid was modified from arginine to lysine to facilitate derivatization with a functional group for detection by autofluorescence. The amino acid sequence of the “core” peptide of the substrate is SEVNLDAEFK (SEQ ID NO.: 3). The amino terminus was derivatized with (7-methoxycoumarin-4-yl)acetyl (MCA), and the epsilon amine of the lysine side chain of the terminal residue (K in sequence SEVNLDAEFK (SEQ ID NO.: 4)) was derivatized with 2,4-dinitrophenyl (DNP).

Amino acid sequences for entries named in this document (tags omitted). Residues count along the entry.
UniProt P56817, 46-501 limits assumed: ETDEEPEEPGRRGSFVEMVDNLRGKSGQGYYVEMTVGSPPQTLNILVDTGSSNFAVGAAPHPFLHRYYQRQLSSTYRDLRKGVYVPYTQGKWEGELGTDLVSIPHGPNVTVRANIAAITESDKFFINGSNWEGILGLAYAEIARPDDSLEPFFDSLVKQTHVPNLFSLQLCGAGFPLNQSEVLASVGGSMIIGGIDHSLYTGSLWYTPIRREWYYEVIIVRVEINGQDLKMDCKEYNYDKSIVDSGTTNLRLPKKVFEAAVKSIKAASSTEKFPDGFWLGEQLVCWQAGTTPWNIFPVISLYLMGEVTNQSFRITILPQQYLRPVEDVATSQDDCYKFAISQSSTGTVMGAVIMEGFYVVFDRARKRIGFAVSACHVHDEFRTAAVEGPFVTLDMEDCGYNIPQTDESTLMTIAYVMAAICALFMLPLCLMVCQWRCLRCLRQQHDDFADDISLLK
UniProt P07339, 65-412 limits assumed: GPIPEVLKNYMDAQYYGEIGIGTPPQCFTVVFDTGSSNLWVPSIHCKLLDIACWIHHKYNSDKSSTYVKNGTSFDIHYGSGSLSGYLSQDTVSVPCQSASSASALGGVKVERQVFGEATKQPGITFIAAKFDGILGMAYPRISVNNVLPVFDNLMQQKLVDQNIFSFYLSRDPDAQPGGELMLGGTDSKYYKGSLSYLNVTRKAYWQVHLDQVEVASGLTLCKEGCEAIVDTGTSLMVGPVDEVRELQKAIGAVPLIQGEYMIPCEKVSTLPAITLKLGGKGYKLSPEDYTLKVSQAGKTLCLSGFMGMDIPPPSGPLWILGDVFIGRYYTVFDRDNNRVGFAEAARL
UniProt Q9Y5Z0, 63-518 limits assumed: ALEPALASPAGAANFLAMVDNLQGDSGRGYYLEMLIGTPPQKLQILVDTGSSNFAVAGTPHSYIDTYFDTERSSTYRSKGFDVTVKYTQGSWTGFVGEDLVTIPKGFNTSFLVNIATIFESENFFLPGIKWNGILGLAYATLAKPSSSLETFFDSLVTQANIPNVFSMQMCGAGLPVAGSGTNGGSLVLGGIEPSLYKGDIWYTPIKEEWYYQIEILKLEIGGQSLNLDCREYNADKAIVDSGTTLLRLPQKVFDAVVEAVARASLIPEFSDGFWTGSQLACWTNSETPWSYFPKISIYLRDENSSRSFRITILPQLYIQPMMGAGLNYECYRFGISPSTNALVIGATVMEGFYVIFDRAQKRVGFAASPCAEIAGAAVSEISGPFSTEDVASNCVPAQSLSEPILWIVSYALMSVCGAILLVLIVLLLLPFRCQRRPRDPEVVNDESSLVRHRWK

The test system of test [2] is Aβ production in Chinese hamster ovary cells that over-express human APP695 with the London and Swedish mutations. Kind of test: Cellular Aβ IC50 determination (Aβ40 sandwich ELISA). The note with it: Aβ40 in CHO cells over-expressing human APP695, 24 h incubation. For orientation: ELISA stands for enzyme-linked immunosorbent assay.
Test [3] has as its target cathepsin D (Homo sapiens, UniProt P07339). Kind of test: Inhibition of cathepsin D activity (substrate peptide ELDLAVEFWHDR, MALDI-TOF). The note with it: read-out: CDKi, pH 4.1, 37 degrees C. On the procedure:
[The procedure below names another target; the source lists this target under the same test.] (§1) A substrate peptide NH3-ELDLAVEFWHDR-CO2 (SEQ ID NO.: 1) was dissolved at 2 mg/mL in 10% glacial acetic acid and diluted into 0.009M NaOH to obtain μM concentration at pH 4.1. After equilibration at 37 degrees C., the reactions were initiated by the addition of an aliquot of memapsin 2. Aliquots were removed at time intervals, and combined with an equal volume of MALDI-TOF matrix (α-hydroxycinnamic acid in acetone, 20 mg/mL) and immediately spotted in duplicate onto a stainless-steel MALDI sample plate. MALDI-TOF mass spectrometry was performed on a PE Biosystems Voyager DE. The instrument was operated at 25,000 accelerating volts in positive mode with a 150 ns delay. Ions with a mass-to-charge ratio (m/z) were detected in the range of 650-2000 atomic mass units. Data were analyzed by the Voyager Data Explorer module to obtain ion intensity data for mass species of substrates and corresponding products in a given mixture. Relative product formation was calculated as the ratio of signal intensity of the product to the sum of signal intensities of both product and the corresponding substrate. Relative product formed per unit time was obtained from non-linear regression analysis of the data representing the initial 15% formation of product using the model: 1−e^−kT, where k was the relative hydrolytic rate constant and T was time in seconds. […]

The target of test [4] is memapsin 1 (Homo sapiens, UniProt Q9Y5Z0). The test is described as follows: Inhibition of memapsin 1 beta-secretase activity (substrate peptide ELDLAVEFWHDR, MALDI-TOF). Particulars: read-out: M1Ki; memapsin 1, pH 4.1, 37 degrees C. On the procedure: [The procedure below names another target; the source lists this target under the same test.] as §1

The structures given here were assigned with low confidence; some may be wrong.

Regarding `Cc1coc([C@H]2CCCN2C(=O)c2cccc(C(=O)N[C@@H](Cc3ccccc3)[C@H](O)CNCc3cccc(C(C)(F)F)c3)c2)n1`, in test [1], the Ki was under 100 nM. For the same compound, the IC50 – broadly, the point on the concentration scale where inhibition reaches its midpoint – in test [2] is under 300 nM.
Consider `COc1cccc(CNC[C@@H](O)[C@H](Cc2ccccc2)NC(=O)c2cccc(C(=O)N3CCC[C@@H]3c3nc(C)cs3)c2)c1`, for which the Ki in test [1] is under 100 nM; in test [3], 301 to 500 nM; in test [4], under 300 nM. In test [2], this compound came in with an IC50 of under 300 nM.

Source of the values: US8299267B2, “(3-hydroxy-4-amino-butan-2-yl) -3- (2-thiazol-2-yl-pyrrolidine-1-carbonyl) benzamide derivatives and related compounds as beta-secretase inhibitors for treating” (CoMentis, Inc., priority 2007, dated 2012).
